Laboratory results: paper PMC3342256
No constants are given. Whether binding was seen depends on the method and setting. Some results given as binding are weak or reduced against the parent protein; the word gives no strength.

Tests used:
[1] = molecular target: PfP2 deletion construct lacking 40 residues from the C-terminus (PfP2-Del 40) (Plasmodium falciparum) (UniProt O00806); test: SDS-PAGE (SDS-resistant oligomers); 100 µg of each recombinant protein, SDS and DTT treatment, Coomassie stain and immunoblot with anti-P2 monoclonal antibody E2G12; both purified
[2] = molecular target: PfP2 deletion construct lacking 40 residues from the C-terminus (PfP2-Del 40) (Plasmodium falciparum) (UniProt O00806); test: NMR (1H-15N HSQC); deletion construct without the last 40 residues; data not shown; both purified

binding [1]: binds
binding [2]: binds
B1: PfP2 deletion construct lacking 40 residues from the C-terminus (PfP2-Del 40) (domain or fragment, UniProt O00806 1-72)
chain: MAMKYVAAYLMCVLGGNENPSTKEVKNVLGAVNADVEDEVLNNFIDSLKGKSCHELITDGLKKLQNIGGGVA
